Here are results for one molecule from paper PMC11348242.

Chains of the proteins cited; added tags and fusions are not shown.
UniProt P13010: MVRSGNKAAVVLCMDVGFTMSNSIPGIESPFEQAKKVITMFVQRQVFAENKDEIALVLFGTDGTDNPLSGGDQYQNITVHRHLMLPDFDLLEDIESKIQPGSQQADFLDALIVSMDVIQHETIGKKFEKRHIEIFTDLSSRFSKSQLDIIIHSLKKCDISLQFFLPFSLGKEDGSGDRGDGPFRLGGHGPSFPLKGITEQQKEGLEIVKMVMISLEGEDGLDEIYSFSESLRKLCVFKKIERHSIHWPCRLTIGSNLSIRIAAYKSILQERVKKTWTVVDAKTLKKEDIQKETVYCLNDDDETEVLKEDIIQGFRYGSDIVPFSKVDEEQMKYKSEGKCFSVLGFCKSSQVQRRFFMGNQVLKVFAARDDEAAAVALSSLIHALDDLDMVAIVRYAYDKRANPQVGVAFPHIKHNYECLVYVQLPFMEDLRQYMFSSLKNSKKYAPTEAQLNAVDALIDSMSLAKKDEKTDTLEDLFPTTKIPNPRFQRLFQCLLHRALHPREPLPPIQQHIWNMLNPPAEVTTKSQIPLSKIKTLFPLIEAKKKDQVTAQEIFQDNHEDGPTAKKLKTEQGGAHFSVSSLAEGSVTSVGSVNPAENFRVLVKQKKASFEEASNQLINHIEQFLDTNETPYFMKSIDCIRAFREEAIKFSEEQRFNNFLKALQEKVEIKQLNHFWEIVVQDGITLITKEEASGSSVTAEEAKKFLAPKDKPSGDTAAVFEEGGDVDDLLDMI
UniProt P12956: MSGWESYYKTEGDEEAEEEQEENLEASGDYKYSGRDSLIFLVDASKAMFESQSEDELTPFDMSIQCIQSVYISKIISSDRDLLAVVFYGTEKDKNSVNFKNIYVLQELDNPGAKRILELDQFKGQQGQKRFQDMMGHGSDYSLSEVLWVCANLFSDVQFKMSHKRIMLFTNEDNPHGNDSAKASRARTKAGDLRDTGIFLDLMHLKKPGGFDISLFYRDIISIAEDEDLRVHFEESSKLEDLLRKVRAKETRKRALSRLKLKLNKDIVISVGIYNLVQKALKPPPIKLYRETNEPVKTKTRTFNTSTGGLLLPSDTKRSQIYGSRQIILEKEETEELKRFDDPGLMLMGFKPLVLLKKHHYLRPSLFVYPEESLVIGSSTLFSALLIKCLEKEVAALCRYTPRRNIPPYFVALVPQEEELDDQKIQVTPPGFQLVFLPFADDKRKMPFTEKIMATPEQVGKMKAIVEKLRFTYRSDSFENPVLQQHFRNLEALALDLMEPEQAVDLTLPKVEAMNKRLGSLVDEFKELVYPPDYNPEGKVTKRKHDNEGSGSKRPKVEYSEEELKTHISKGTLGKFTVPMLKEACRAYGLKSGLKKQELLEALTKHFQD

The target of test [1] is Ku80 (human (endogenous in HeLa and HEK293)) (UniProt P13010). In words: co-IP; HEK293 cells, with or without RSL3 (4 µM, 2 h); immunoprecipitation with MIF, Ku70 or Ku80 antibodies, then immunoblot; rabbit and mouse IgG as negative controls. For orientation: In western blotting, separated proteins are transferred to a membrane and probed.
Test [2] addresses Ku70 (human (endogenous in HeLa and HEK293)) (UniProt P12956). Described as above.

No constants are given. Whether binding was seen depends on the method and setting. In cells and extracts the contact can be indirect. Some binding calls cover weakened binding; strength is not graded here.

B1: macrophage migration inhibitory factor (MIF) (protein, UniProt P14174 1-115)
chain: MPMFIVNTNVPRASVPDGFLSELTQQLAQATGKPPQYIAVHVVPDQLMAFGGSSEPCALCSLHSIGKIGGAQNRSYSKLLCGLLAERLRISPDRVYINYYDMNAANVGWNNSTFA
B1: the binding entry in test [1] and in test [2] was “binds” each time.
